Laboratory results reported in PMC6731690.
Results are given in words; binding and its absence hold for the method and conditions named. Binding calls can cover weak binding; strength is not graded here.

Key:
[1] = molecular target: T1, BMP9 growth factor domain (BMP9-GFD) (UniProt Q9UK05); assay: native gel or EMSA; purified proteins premixed, incubated at room temperature for 10 min, 10% native PAGE; bands excised and rerun on 12% nonreducing SDS/PAGE; both purified
T1 sequence: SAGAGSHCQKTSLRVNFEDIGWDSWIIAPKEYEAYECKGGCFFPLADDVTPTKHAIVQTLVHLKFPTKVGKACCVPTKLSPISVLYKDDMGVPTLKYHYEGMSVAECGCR

[2] = molecular target: T1, BMP9 growth factor domain (BMP9-GFD); assay: SEC; sENG(M) (1 mg) mixed with pro-BMP9 (10 ug GFD) at room temperature for 30 min; S200 10/30, 20 mM Tris-Cl, pH 7.4, 150 mM NaCl; fractions on nonreducing SDS/PAGE, immunoblotted; both purified
[3] = molecular target: T1, BMP9 growth factor domain (BMP9-GFD); assay: pull-down; pro-BMP9 applied to a nickel-chelating (Ni-NTA) column preloaded with His-tagged sENG (D+M); samples on 12% SDS/PAGE, Coomassie Blue; both purified

Measured: binding

BMP9 prodomain (from UniProt Q9UK05) (domain or fragment)
binds: all assays above
